Measured values taken from PubChem BioAssay AID493014 (National Center for Advancing Translational Sciences (NCATS), 2011).
This is one part of the list. The main result of the screen is listed elsewhere. These columns were measured beside it and carry no call. The list favours compounds with an active or inconclusive main result. Words in brackets tell the shape of the fitted curve; partial curves, single points and poor fits give uncertain potencies.

Experiment: qHTS Assay to Find Inhibitors of Chronic Active B-Cell Receptor Signaling
Conditions: ABC-DLBCL IkBa-CBG/CBR reporter, luminescence ratio (green luciferase fused to IkBa over red control in TMD8 lymphoma cells), 4 h; measured here: CBR red luminescence, cell number
In short: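 TMD8 ABC-DLBCL cells carrying doxycycline-inducible green luciferase fused to IkappaBalpha plus unfused red luciferase were exposed to compounds (up to 46 uM) for 4 hrs at 37C. Activity came from the overlap-corrected green/red luminescence ratio.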

| Compound | AC50 |
| --- | --- |
| O=C(O)CCC(=O)Nc1sc2c(c1C(=O)Nc1cccc3ccccc13)CCCCC2 | 29.1 µM [falling, single point] |
| Cc1c(NC(=S)SCc2ccccc2)c(=O)n(-c2ccccc2)n1C | 11.2 µM [falling, single point] |
| CC(=O)C(Sc1nnnn1-c1ccc(O)cc1)c1ccccc1 (stereo unspecified) | 12.6 µM [rising, partial curve, poor fit] |
| Cc1c(C(c2ccc(N(C)C)cc2)c2c(C)n(C)n(-c3ccccc3)c2=O)c(=O)n(-c2ccccc2)n1C | 11.2 µM [rising, single point] |
| CC(CN1CCOCC1)OC(=O)C1COc2ccccc2O1 (stereo unspecified) | 2.51 µM [rising, partial curve] |
| O=C(Nc1nnc(SCc2ccccc2F)s1)c1ccco1 | 3.26 µM [rising, partial curve, poor fit] |
| Cc1[nH]n(-c2ccc([N+](=O)[O-])cc2)c(=O)c1C=NCCN1CCN(C(=O)c2cccc(F)c2)CC1 | 14.6 µM [falling, partial curve] |
| CN1CCC(=NNC(=O)C(=O)Nc2cccc(Br)c2)CC1 | 10 µM [falling, partial curve, poor fit] |
| CCOc1cc(C(=O)Nc2cc(=O)n(C)c(=O)n2C)cc(OCC)c1OCC | 0.184 µM [falling, full curve, poor fit] |
| COc1cccc(C(=O)NC2(C(F)(F)F)N=C3SCCN3C2=O)c1 (stereo unspecified) | 2.06 µM [falling, partial curve, poor fit] |
| CCOC(=O)C1(Cc2ccc(OC)cc2)CCN(C(=O)C2CC(=O)N(C3CC3)C2)CC1 (stereo unspecified) | 35.5 µM [rising, single point] |
| COc1cc2ccccc2cc1C(=O)OCc1nc2ccsc2c(=O)[nH]1 | 0.517 µM [rising, full curve] |
| COc1ccc(S(=O)(=O)N(CCc2ccccc2)CC(=O)O)cc1C | 6.51 µM [falling, single point] |
| C[C@@]12C(=O)N(c3cccc(F)c3)C(=O)N1[C@H](c1ccc(Cl)cc1)[C@@H]1C(=O)N(C3CCCCC3)C(=O)[C@@H]12 | 10.3 µM [falling, partial curve, poor fit] |
| Cc1ccc(-c2n[nH]c(=S)n2/N=C/C=C/c2ccccc2[N+](=O)[O-])cc1 | 11.6 µM [rising, partial curve] |
| O=C1CN(C(=O)Cn2ncc(Cl)c(Cl)c2=O)c2ccccc2N1 | 10 µM [falling, partial curve, poor fit] |
| COc1ccc(S(=O)(=O)c2ccccc2)cc1NS(=O)(=O)c1cccc(C(=O)O)c1 | 3.26 µM [falling, single point] |
| O=C(NC(=S)Nc1cccc2[nH]ncc12)c1ccccc1 | 11.2 µM [falling, single point] |
| COc1cccc(C2=NN(C(=O)c3ccco3)C(c3ccco3)C2)c1 (stereo unspecified) | 20 µM [falling, partial curve, poor fit] |
| COC(=O)c1ccc(-c2nc3ccccc3o2)cc1 | 0.631 µM [rising, full curve, poor fit] |
| COc1ccc(C(=O)NNC(=S)Nc2ccccc2)cc1 | 6.31 µM [falling, partial curve] |

| Compound | AC50 |
| --- | --- |
| Nc1nnc(-c2cn(-c3ccccc3)nc2-c2ccccc2)o1 | 1.84 µM [rising, full curve, poor fit] |
| CC(=O)c1cnc(Nc2ccc(C)cc2)s1 | 12.6 µM [rising, partial curve] |
| Clc1ccc(CSc2nc3ccncc3[nH]2)cc1 | 14.6 µM [falling, single point] |
| COc1ccc(C(=O)COC(=O)c2cccc(-n3cnnn3)c2)c(OC)c1 | 0.366 µM [falling, full curve] |
| Brc1cccc(-c2cnc3n2CCCCC3)c1 | 29.1 µM [falling, single point] |
| COc1ccc(CCNC(=O)c2nnc(Cc3ccc(Cl)cc3)o2)cc1OC | 29.1 µM [falling, single point] |
| CCOC(=O)CC(=O)Nc1nnc(CC(C)C)s1 | 29.1 µM [rising, single point] |
| COc1ccc(NC(=O)c2sc3nc(C)cc(C)c3c2N)cc1 | 3.55 µM [falling, full curve, poor fit] |
| Cc1ccc2c(c1)N=C(c1ccc(Cl)cc1)CO2 | 0.731 µM [rising, full curve, poor fit] |
| Cc1onc(-c2ccccc2)c1C(=O)N/N=C/C(Br)=C/c1ccccc1 | 20.6 µM [falling, single point] |
| COc1ccc(C)cc1NC(=O)C1CC(=O)OC12CCCCC2 (stereo unspecified) | 29.1 µM [rising, single point] |
| CCn1c(SCC(=O)Nc2ccc3c(c2)OCO3)nc2c1c(=O)n(C)c(=O)n2C | 29.1 µM [falling, single point] |
| Cc1ccc(C(NC(=O)N2CCN(C)CC2)C(Cl)Cl)cc1F (stereo unspecified) | 3.16 µM [falling, full curve] |
| O=S(=O)(c1cccc(C(F)(F)F)c1)n1c(/C=C/c2ccccc2)nc2ccccc21 | 35.5 µM [falling, single point] |
| O=[N+]([O-])c1ccc2c(c1)CNc1ccccc1O2 | 2.82 µM [rising, partial curve] |
| CN(C)S(=O)(=O)Oc1cccc(C(=O)Nc2ccc([N+](=O)[O-])cc2)c1 | 0.0891 µM [rising, full curve, poor fit] |
| O=C(CSc1nnc(CNC(=O)c2cccs2)o1)c1ccc(Cl)cc1 | 11.6 µM [rising, partial curve, poor fit] |
| CCOC(=O)C1CCN(c2c(Nc3ccc4c(c3)OCCO4)c(=O)c2=O)CC1 | 29.1 µM [rising, single point] |
| C/C(=N\OCc1ccccc1)c1c(O)cc(C(C)C)n(-c2ccccc2)c1=O | 23.1 µM [rising, partial curve, poor fit] |
| CCC(=O)Nc1ccc(C(=O)Nc2cccc(OC)c2)cc1 | 0.13 µM [falling, partial curve, poor fit] |
